# No constants are given. Whether binding was seen depends on the method and setting. In cells and extracts the contact can be indirect. Some binding calls cover weakened binding; strength is not graded here.
# Protein sequences, listed by entry. Tags and fused reporters are not part of them.
# UniProt P35222: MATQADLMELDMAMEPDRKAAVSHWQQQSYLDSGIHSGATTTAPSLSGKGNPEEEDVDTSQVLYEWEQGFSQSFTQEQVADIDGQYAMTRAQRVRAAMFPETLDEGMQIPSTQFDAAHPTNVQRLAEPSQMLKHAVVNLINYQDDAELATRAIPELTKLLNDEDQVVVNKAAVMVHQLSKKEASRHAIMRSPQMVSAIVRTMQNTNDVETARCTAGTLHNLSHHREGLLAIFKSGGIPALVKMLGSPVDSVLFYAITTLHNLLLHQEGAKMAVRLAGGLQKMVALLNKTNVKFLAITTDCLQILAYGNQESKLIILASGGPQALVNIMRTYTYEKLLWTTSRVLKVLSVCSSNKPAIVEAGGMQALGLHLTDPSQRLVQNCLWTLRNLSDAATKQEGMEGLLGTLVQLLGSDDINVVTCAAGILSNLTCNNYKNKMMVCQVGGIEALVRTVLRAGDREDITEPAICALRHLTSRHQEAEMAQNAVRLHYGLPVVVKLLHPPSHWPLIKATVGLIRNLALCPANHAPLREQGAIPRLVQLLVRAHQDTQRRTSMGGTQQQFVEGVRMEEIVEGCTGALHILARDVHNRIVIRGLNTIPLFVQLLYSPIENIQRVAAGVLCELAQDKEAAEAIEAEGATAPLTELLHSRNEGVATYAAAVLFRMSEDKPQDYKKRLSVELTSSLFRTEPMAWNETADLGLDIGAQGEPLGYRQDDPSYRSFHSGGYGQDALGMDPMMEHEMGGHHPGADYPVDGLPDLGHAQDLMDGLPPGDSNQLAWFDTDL
# UniProt Q02248: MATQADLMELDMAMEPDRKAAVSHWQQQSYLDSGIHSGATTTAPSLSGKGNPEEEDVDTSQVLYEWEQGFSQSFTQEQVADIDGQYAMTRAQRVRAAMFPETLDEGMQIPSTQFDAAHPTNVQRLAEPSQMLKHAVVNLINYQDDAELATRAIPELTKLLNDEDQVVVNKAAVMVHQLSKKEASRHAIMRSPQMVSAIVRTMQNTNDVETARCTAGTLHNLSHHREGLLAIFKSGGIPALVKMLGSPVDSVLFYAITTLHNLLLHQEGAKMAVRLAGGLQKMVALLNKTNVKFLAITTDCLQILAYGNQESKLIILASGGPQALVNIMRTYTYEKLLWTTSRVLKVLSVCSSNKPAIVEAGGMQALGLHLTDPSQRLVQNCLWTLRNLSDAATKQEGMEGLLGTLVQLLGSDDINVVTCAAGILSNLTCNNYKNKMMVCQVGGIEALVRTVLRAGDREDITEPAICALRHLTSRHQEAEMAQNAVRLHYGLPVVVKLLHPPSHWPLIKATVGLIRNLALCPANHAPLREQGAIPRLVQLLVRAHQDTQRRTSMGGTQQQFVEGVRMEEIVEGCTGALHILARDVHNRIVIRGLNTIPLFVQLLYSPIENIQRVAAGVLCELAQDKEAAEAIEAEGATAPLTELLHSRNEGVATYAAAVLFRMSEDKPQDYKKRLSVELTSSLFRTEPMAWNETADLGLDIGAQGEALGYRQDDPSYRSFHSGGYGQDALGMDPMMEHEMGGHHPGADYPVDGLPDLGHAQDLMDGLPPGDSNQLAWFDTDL
# UniProt P59268: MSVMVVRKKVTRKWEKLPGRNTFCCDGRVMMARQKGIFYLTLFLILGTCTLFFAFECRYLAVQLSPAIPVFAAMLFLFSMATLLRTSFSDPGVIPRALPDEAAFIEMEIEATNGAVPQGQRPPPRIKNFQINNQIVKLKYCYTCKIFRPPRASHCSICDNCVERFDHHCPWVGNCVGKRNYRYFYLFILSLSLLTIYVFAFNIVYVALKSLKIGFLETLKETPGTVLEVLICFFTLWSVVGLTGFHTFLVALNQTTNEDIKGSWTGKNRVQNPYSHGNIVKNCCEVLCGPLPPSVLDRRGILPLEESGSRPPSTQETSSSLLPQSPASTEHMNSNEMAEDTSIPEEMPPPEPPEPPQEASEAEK
# UniProt P97823: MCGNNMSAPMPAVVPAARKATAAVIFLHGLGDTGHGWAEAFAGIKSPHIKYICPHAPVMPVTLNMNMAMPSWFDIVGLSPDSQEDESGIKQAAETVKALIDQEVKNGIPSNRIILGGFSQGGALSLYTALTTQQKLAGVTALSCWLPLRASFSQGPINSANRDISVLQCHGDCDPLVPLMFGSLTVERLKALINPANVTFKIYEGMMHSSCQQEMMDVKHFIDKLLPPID
# UniProt Q8BK63: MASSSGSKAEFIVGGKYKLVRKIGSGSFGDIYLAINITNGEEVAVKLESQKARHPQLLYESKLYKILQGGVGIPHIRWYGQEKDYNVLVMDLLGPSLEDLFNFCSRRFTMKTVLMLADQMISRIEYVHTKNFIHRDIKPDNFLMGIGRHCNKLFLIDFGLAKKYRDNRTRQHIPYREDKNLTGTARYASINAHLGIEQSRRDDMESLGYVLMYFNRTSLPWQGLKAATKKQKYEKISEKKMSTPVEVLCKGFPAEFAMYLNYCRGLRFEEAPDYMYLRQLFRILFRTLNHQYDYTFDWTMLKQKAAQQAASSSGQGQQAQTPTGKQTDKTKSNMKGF
# UniProt O35625: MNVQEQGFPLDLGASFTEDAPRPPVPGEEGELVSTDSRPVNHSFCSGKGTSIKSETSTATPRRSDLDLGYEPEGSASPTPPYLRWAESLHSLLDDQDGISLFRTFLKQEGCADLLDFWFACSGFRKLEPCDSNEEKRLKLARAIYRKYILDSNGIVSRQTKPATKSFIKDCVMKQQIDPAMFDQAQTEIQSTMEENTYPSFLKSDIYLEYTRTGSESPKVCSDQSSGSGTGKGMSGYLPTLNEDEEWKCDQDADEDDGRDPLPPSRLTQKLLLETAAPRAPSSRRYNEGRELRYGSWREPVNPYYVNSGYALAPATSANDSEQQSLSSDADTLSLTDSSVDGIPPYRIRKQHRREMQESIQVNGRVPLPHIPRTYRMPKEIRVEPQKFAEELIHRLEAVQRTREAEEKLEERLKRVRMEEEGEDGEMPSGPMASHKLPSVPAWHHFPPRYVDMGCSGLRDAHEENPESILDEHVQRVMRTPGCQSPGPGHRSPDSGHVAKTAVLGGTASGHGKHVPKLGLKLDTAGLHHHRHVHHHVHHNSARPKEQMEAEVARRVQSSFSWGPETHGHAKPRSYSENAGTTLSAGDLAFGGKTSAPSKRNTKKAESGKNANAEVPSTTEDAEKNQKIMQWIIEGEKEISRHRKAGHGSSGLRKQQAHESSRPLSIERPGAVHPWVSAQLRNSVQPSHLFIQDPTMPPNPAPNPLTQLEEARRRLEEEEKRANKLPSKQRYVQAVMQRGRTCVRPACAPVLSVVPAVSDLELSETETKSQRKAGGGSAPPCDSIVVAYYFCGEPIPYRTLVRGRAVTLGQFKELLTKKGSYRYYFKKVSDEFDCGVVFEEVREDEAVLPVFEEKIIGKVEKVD
# Tests used:
# [1] = target: β-catenin (co-precipitated with exogenous DHHC9, Fig. 5d) (UniProt P35222); assay: co-IP; exogenous DHHC9 in HEK 293 A cells after treatment with lactacystin at 20 mM for 6 hours (legend; the text says PTCs); IP lysis buffer, 1 ug primary antibody overnight at 4 °C, protein A/G PLUS-agarose, immunoblot
# [2] = target: β-catenin (endogenous, primary tubular epithelial cells) (mouse (endogenous in PTCs)) (UniProt Q02248); assay: co-IP; one partner exogenous (Flag-tagged β-catenin WT or C300S, or exogenous APT1) in transfected PTCs; IP lysis buffer, 1 ug primary antibody overnight at 4 °C, protein A/G PLUS-agarose, immunoblot
# [3] = target: β-catenin (endogenous, primary tubular epithelial cells) (mouse (endogenous in PTCs)) (UniProt Q02248); assay: co-IP; endogenous proteins in lysates of mouse primary tubular cells (PTCs); IP lysis buffer, 1 ug primary antibody overnight at 4 °C, protein A/G PLUS-agarose, immunoblot; cells with DHHC9 siRNA or adenovirus, APT1 siRNA or plasmid
# Flag-tagged WT β-catenin = Flag-tagged WT β-catenin (UniProt Q02248); assay: co-IP; one partner exogenous (Flag-tagged β-catenin WT or C300S, or exogenous APT1) in transfected PTCs; IP lysis buffer, 1 ug primary antibody overnight at 4 °C, protein A/G PLUS-agarose, immunoblot
binding [3],Substance,other results
,exogenous DHHC9 (from UniProt P59268 1-364) (enzyme),binding [1]: binds
,exogenous APT1 (from UniProt P97823 1-230) (enzyme),binding [2]: binds
binds,casein kinase (CK) 1α (from UniProt Q8BK63 1-337) (enzyme),
binds,"acyl protein thioesterase 1 (APT1), endogenous (from UniProt P97823 1-230) (enzyme)",

Substance,binding [3],other results
Axin (from UniProt O35625 1-863),binds,binding (Flag-tagged WT β-catenin): binds
